In article doi:10.1101/2024.05.31.595485:
These are yes or no findings as the source states them, for the method shown. In cells and extracts the contact can be indirect. Here binding means that the protein was enriched with, or labelled near, the bait; the list need not be complete. Sequences can lack the tags named with a protein.

Amino acid sequences for entries named in this document (tags omitted).
UniProt P70372: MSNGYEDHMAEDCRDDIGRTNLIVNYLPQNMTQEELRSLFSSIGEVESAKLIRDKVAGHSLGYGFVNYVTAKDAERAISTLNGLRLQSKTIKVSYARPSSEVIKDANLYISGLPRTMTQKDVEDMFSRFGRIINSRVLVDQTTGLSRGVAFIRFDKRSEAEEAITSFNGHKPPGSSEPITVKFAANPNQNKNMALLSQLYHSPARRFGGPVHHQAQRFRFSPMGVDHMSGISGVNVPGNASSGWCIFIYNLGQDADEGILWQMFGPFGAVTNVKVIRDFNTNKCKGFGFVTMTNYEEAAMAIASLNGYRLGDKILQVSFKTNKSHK
UniProt Q60668: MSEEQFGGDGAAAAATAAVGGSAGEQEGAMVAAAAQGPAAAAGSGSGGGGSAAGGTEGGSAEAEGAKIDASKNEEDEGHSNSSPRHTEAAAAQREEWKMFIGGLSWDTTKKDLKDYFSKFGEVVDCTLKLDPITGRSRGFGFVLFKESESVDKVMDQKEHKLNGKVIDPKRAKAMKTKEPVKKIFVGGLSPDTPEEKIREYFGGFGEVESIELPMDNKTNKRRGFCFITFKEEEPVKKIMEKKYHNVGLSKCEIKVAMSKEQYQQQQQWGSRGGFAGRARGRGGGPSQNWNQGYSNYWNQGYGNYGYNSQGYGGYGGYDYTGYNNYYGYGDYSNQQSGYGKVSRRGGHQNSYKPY
UniProt Q5SF07: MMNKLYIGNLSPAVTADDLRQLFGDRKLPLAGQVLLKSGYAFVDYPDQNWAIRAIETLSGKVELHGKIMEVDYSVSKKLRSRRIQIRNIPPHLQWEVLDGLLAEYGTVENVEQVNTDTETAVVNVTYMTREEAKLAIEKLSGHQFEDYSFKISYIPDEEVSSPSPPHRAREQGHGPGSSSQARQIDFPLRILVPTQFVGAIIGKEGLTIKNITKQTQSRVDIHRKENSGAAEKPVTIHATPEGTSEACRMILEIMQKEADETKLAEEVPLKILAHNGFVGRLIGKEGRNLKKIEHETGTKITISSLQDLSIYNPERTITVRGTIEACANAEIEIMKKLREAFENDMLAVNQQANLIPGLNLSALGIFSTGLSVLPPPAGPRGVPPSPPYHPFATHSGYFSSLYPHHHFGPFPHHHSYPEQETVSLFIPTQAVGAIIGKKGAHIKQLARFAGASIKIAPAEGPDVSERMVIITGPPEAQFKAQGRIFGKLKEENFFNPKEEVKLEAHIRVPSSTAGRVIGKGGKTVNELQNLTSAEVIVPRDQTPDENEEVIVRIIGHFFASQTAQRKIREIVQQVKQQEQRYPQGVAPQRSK
UniProt Q9CPN8: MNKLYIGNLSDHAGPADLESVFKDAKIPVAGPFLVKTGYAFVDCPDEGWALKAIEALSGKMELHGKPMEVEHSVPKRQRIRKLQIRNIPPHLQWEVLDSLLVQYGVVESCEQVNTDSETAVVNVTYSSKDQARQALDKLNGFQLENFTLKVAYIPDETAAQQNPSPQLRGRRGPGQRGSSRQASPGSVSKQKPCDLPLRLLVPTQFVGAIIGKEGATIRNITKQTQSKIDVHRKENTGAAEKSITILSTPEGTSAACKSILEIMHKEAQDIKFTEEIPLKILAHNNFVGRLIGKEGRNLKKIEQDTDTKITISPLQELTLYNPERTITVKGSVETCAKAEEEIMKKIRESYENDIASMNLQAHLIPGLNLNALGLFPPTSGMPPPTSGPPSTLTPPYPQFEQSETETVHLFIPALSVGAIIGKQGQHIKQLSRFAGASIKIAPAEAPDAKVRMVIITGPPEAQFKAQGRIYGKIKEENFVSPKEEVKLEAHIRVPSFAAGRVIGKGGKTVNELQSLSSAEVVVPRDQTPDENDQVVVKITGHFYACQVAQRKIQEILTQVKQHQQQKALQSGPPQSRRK
UniProt Q9D0R8: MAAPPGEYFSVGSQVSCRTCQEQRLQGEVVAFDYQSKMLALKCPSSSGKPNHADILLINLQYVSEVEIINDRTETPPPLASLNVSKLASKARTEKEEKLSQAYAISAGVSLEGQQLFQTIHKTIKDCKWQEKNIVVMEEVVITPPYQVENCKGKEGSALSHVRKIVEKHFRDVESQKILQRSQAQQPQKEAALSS
UniProt P05213: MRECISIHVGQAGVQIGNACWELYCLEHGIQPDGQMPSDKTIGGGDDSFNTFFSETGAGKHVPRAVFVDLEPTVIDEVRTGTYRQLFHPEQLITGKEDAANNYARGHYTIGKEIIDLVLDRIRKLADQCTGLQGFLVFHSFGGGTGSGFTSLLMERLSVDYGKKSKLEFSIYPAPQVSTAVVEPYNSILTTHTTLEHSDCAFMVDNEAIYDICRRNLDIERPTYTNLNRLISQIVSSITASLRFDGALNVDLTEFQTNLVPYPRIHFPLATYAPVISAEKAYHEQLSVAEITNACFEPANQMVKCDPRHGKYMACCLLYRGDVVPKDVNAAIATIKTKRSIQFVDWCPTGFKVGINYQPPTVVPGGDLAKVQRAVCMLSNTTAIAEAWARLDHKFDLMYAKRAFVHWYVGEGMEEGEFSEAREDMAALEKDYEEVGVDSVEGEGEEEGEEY
UniProt P99024: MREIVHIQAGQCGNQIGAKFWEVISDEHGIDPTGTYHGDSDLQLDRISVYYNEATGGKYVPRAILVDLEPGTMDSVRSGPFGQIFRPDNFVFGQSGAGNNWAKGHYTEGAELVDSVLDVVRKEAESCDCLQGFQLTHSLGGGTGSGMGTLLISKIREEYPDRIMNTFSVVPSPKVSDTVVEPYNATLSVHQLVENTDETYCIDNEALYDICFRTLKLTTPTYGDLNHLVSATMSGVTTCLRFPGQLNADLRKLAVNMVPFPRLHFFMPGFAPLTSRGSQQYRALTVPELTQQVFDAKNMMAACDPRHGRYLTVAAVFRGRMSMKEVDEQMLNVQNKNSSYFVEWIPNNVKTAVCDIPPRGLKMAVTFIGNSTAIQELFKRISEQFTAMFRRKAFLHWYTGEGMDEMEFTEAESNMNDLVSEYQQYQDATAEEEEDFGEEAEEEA
UniProt O88477: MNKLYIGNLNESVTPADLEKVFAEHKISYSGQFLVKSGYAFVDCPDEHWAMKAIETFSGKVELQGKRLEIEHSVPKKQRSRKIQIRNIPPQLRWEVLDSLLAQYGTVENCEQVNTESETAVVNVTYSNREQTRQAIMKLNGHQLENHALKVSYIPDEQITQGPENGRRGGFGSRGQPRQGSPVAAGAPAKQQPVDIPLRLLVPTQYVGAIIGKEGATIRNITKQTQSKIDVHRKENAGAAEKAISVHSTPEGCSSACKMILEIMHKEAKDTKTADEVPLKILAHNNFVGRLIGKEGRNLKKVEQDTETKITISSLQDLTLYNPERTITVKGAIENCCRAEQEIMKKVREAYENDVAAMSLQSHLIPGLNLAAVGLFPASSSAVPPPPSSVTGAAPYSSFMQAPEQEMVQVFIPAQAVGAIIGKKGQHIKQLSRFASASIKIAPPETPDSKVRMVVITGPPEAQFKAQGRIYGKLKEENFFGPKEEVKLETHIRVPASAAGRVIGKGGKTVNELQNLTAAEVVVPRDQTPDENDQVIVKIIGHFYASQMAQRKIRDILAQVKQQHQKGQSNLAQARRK

T1: STAG3-v5 (mouse (endogenous in mESCs)) (UniProt O70576)
T1 sequence: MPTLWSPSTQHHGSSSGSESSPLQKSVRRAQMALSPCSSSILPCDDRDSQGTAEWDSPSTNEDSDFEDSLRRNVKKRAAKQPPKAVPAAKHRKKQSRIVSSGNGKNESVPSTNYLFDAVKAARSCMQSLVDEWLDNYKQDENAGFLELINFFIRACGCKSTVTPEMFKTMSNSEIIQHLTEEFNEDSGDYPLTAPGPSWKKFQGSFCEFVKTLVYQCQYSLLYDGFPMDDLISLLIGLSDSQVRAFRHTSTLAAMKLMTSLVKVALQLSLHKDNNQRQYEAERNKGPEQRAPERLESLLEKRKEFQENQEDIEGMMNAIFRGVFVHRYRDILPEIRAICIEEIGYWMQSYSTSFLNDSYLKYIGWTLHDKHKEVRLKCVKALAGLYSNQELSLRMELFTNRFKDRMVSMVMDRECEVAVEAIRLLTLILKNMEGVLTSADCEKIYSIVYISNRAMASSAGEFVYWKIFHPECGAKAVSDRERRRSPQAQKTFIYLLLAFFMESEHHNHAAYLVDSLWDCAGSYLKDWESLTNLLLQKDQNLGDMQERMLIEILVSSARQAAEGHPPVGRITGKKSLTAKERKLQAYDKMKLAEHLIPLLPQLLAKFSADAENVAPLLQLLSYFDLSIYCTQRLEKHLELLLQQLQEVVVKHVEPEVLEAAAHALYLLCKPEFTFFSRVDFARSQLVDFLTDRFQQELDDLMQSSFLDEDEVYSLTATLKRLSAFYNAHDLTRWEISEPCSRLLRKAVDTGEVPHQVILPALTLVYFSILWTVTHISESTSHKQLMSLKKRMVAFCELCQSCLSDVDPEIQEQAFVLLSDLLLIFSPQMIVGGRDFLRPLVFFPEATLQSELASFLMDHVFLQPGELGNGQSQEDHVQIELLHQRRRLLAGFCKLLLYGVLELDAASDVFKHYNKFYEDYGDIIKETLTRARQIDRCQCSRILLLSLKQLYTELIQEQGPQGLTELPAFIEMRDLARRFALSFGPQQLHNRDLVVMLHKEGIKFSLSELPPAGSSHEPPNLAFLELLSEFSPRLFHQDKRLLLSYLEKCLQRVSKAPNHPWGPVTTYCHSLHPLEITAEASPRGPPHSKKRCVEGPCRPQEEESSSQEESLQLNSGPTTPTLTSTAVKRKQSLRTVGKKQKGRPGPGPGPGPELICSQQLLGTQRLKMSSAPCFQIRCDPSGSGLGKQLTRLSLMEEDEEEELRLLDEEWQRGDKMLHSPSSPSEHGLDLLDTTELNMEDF

B1: POC1A (protein, UniProt Q8JZX3 1-405)
chain: MAAPSQEDPSLERHFKGHRDAVTCVDFSLNTKHLASGSMDSTLMIWHMKPQSRAYRFTGHKDAVTCVNFSPSGHLLASGSRDKTVRIWVPNVKGESTVFRAHTATVRSVHFCSDGQSLVTASDDKTVKVWSTHRQRFLFSLTQHINWVRCAKFSPDGRLIVSASDDKTVKLWDKTSRECIHSYCEHGGFVTYVDFHPSGTCIAAAGMDNTVKVWDARTHRLLQHYQLHSAAVNALSFHPSGNYLITASSDSTLKILDLMEGRLLYTLHGHQGPATTVAFSRTGEYFASGGSDEQVMVWKSNFDIVDYGDMKARRPPPLTSSSGTLPKMDLPVPPGRDRSLESVQGEPQESISMPQTLTSTLEHIVGQLDILTQTVSILEQRLTLTEDRLKQCLENQQLIMQRTPP
B2: STIL (protein, UniProt Q60988 1-1262)
chain: MNTRFPSSKMVPFHFPPSKLALWNPMPIGECIYLHLSYYRKPKLMVTEKAIRLAYRHAKQNKKNVPCFLLGSLTVDEDEEGVTLTIDRFDPGREIPECLERTPTASLPGDFLIPCRVHIQGLGSRDVIVHNADDFSSALKALQYHVCSKDFLDCGKLLCLRAQITPRESLDGVDFNLQWTAVTLANSFKCVPVKPIPIIPTALARNLSSNLNISQVQGTYKHGYITMDETRKLLLLLQSDPKVSSLPLVGIWLAGIIHVYSPQVWACCLRYMFSSSIQERVFSESGNFIIVLYSLTHKEPEFYECLPCESRTPDLQFQLLTNKETLHLFNNVEPSGKNPIHFELSAESQDAEAEAEVLSKISKTLPVKRSSQKLSPGKIPINKHDTDLEDEDFSPRPIPSPHPVSQKISKVQPSVPELSLVLDNNFTESSNQSNPLEMMTVENPLLIKPSQPELCDAKHSSEATTGEPFRRGPTNQLSQDTALRQSRGKQSSTCKKESLQFRNTNAKPSLSVPSPDVAEKLQAVSAGSMQKEDYPVRPSTLDSRQPSLAPQAQPHNLVFSTHNSTRPMELQVPTPSLPSYYPTNVCSCCQHHGHIQYSTINSWQGNTVGSIQDLRSESLPKHAFFHSSGCPSLCPNAIYSSSSPVSMKQGGMGAYSPHSNGEPSPVAGPSHVDSCVPHPCAMCMHTPNTAPDNGMMGLSPDAYRFVTEQDRQLRLLQAQIQRLLEAQSLDPGSHKTVATVEDTVKAAKQMELVSMEAQSSPGLHMRKSVSIAVSTGASLFWNAAGDDQEPDSQPKQDDTKISSEDMNFSVDINNEATSLPGSASSLKAVDIPSFEESNLAVEEVNQPLPESNSSSEQSKEPGVPVFFPNALLAESVSMCLQTAPTEGASNSTELPQGTKDEPYRPSDNQKIYQDLLGQVNHLLSNASQETEEPPTKAVVTNRECAKTQNTHHARKKRHNSGLVDKDCVLSATIKQLRSLGVKIDSPTKVKKNEQKVDHASVLACISPEAVISGLNYMSFGNVGMSSLSPTGVDLSMEANAIALKYLSENQLSQLSLARSKQNNGDSSVGLLHINSDRSTVGLSLVSPSNMSFATKKYMKRYGLLQSSDNSEDEEEPPSHADSESDHVLNRNPACRPVQCGHEKEPSWNACEIAQCSDCGSADTRTDVPVLRNITNQAVQPRATEHLNEDSAISLRNLKPNPAMNLRTGKAEFTHHPEKENERDIAVFPGTLPSPETLKQMNSMDSVGTFLDVKRLRQLPKLF

Target: T1, STAG3-v5 (mouse (endogenous in mESCs))
Test: affinity purification with mass spectrometry

binding | Molecule
binds | B1
binds | B2

Target: T1, STAG3-v5 (mouse (endogenous in mESCs))
Test: affinity purification with mass spectrometry
Remark: another data set of the same source

binding | Molecule
binds | ELAVL1 (from UniProt P70372 1-326)
binds | HNRNPD (from UniProt Q60668 1-355)
binds | IGF2BP2 (from UniProt Q5SF07 1-592)
binds | IGF2BP3 (from UniProt Q9CPN8 1-579)
binds | LSM12 (from UniProt Q9D0R8 1-195)
binds | TUBA1b (from UniProt P05213 1-451)
binds | TUBB5 (from UniProt P99024 1-444)
binds | insulin-like growth factor 2 mRNA-binding protein 1 (IGF2BP1) (from UniProt O88477 1-577)
